Results from PubChem BioAssay AID330 (DTP/NCI, 2004).
The list is a part of this screen's results and no random one: its compounds were picked by chemical class. Other doses and runs of a compound may be missing. T/C is the treated group as % of the vehicle group. Some doses have a count of surviving animals in place of a T/C: the source holds a T/C of zero for them, seemingly a mark for toxic or unscored doses. Counts of survivors are from the toxicity check (mostly the fifth day) where no day follows; animals may have died later. Schedules are NCI's codes, read here as Q, the interval in days (D) or hours (H), X, the number of doses. Where survival is the endpoint, the PubChem record calls one and a half times the control and up active, and a quarter to a half above the control has no call in these data; cut-offs in other NCI protocols can differ. Some entries hold several experiments; the results are listed from low to high. Some entries show no survivor count and are marked so; the dose need not have been tolerated. Some schedules carry Z or #; the key to these is not given.

Test system: P388 leukemia ip, CD2F1 mice, survival T/C
Test: NCI In Vivo Anticancer Drug Screen. Data for tumor model P388 Leukemia (intraperitoneal) in CD2F1 (CDF1) mice
Details: T/C endpoint: median survival time, higher T/C = longer survival
[1] = dose: 100.0 mg/kg/injection, schedule: Q04DX003 (ip), vehicle: Klucel (hydroxypropylcellulose) (HPC)
[2] = dose: 200.0 mg/kg/injection, schedule: Q04DX003 (ip), vehicle: Klucel (hydroxypropylcellulose) (HPC)
[3] = dose: 400.0 mg/kg/injection, schedule: Q04DX003 (ip), vehicle: Klucel (hydroxypropylcellulose) (HPC)
[4] = dose: 3.12 mg/kg/injection, schedule: Q01DX009 (ip), vehicle: saline
[5] = dose: 6.25 mg/kg/injection, schedule: Q01DX009 (ip), vehicle: saline

With `O=C1/C(=C/N(CCCl)CCCl)CCc2ccccc21` the T/C [1] was 103 % of control [survivor count not shown], the T/C [2] was 100 % of control [survivor count not shown] and the T/C [3] was 104 % of control [survivor count not shown].

`S=P(Cl)(Cl)N(CCCl)CCCl` was tested, and the T/C (dose: 6.25 mg/kg/injection, schedule: Q04DX003 (ip), vehicle: saline with Tween-80) was 95 [survivor count not shown] and 105 % of control [survivor count not shown], the T/C (dose: 12.5 mg/kg/injection, schedule: Q04DX003 (ip), vehicle: saline with Tween-80) was 90 [survivor count not shown] and 100 % of control [survivor count not shown] and the T/C (dose: 25.0 mg/kg/injection, schedule: Q04DX003 (ip), vehicle: saline with Tween-80) was 95 [survivor count not shown] and 100 % of control [survivor count not shown].

For `Cc1ccc2c(N(CCCl)CCCl)cc(C)nc2n1`, the T/C (dose: 50.0 mg/kg/injection, schedule: Q04DX003 (ip), vehicle: saline with Tween-80) was 103 % of control, the T/C (dose: 100.0 mg/kg/injection, schedule: Q04DX003 (ip), vehicle: saline with Tween-80) was 95 % of control and the survivor count (dose: 200.0 mg/kg/injection, schedule: Q04DX003 (ip), vehicle: saline with Tween-80) was 2 of 6.

For `O=[N+]([O-])c1cc(Cl)ccc1SCCCl`, the T/C [1] was 100 % of control, the T/C [2] was 102 % of control and the T/C [3] was 93 % of control.

`NC1(C(=O)O)CCc2ccc(N(CCCl)CCCl)cc21` (stereo not given) was tested, and the T/C (dose: 12.5 mg/kg/injection, schedule: Q04DX003 (ip), vehicle: Klucel (hydroxypropylcellulose) (HPC)) was 166 % of control [survivor count not shown], the T/C (dose: 25.0 mg/kg/injection, schedule: Q04DX003 (ip), vehicle: Klucel (hydroxypropylcellulose) (HPC)) was 203 % of control [survivor count not shown] and the T/C (dose: 50.0 mg/kg/injection, schedule: Q04DX003 (ip), vehicle: Klucel (hydroxypropylcellulose) (HPC)) was 205 [survivor count not shown] and 265 % of control [survivor count not shown]. The T/C [1] was 248 % of control [survivor count not shown] and the T/C [2] was 116 % of control [survivor count not shown].

`O=C(CCl)Nc1ccc(N(CCCl)CCCl)cc1` was tested, and the T/C (dose: 6.25 mg/kg/injection, schedule: Q01DX009 (ip), vehicle: Klucel (hydroxypropylcellulose) (HPC)) was 146 [survivor count not shown] and 160 % of control [survivor count not shown], the T/C (dose: 12.5 mg/kg/injection, schedule: Q01DX009 (ip), vehicle: Klucel (hydroxypropylcellulose) (HPC)) was 161 [survivor count not shown] and 164 % of control [survivor count not shown] and the T/C (dose: 25.0 mg/kg/injection, schedule: Q01DX009 (ip), vehicle: Klucel (hydroxypropylcellulose) (HPC)) was 162 [survivor count not shown] and 169 % of control [survivor count not shown]. The T/C (dose: 50.0 mg/kg/injection, schedule: Q01DX009 (ip), vehicle: Klucel (hydroxypropylcellulose) (HPC)) was 108 [survivor count not shown] and 131 % of control [survivor count not shown].

For `Oc1cc(O)cc(N(CCCl)CCCl)c1`, the T/C [4] was 100 and 125 % of control, the T/C [5] was 90 and 144 % of control and the T/C (dose: 12.5 mg/kg/injection, schedule: Q01DX009 (ip), vehicle: saline) was 93 and 145 % of control. For the same compound, the T/C (dose: 25.0 mg/kg/injection, schedule: Q01DX009 (ip), vehicle: saline) was 90 and 163 % of control, the T/C (dose: 25.0 mg/kg/injection, schedule: Q01DX009 (ip), vehicle: water) was 143 % of control [survivor count not shown] and the T/C (dose: 50.0 mg/kg/injection, schedule: Q01DX009 (ip), vehicle: water) was 151 % of control [survivor count not shown]. For the same compound, the T/C (dose: 100.0 mg/kg/injection, schedule: Q01DX009 (ip), vehicle: saline) was 87 % of control and the T/C (dose: 100.0 mg/kg/injection, schedule: Q01DX009 (ip), vehicle: water) was 164 % of control [survivor count not shown].

For `NC(Cc1cccc(N(CCCl)CCCl)c1)C(=O)O` (stereo not given), the T/C (dose: 3.12 mg/kg/injection, schedule: Q01DX001 (ip), vehicle: Klucel (hydroxypropylcellulose) (HPC)) was 184 % of control [survivor count not shown], the T/C (dose: 6.25 mg/kg/injection, schedule: Q01DX001 (ip), vehicle: Klucel (hydroxypropylcellulose) (HPC)) was 173 [survivor count not shown] and 266 % of control [survivor count not shown] and the T/C (dose: 12.5 mg/kg/injection, schedule: Q01DX001 (ip), vehicle: Klucel (hydroxypropylcellulose) (HPC)) was 208 [survivor count not shown] and 272 % of control [survivor count not shown]. For the same compound, the T/C (dose: 12.5 mg/kg/injection, schedule: Q01DX001 (ip), vehicle: saline) was 274 % of control [survivor count not shown] and the T/C (dose: 25.0 mg/kg/injection, schedule: Q01DX001 (ip), vehicle: Klucel (hydroxypropylcellulose) (HPC)) was 260 % of control [survivor count not shown].

For `ClCCN(CCCl)c1ccc(Oc2ccccc2)cc1`, the T/C (dose: 88.0 mg/kg/injection, schedule: Q01DX009 (ip), vehicle: other) was 150 % of control [survivor count not shown], the T/C (dose: 88.0 mg/kg/injection, schedule: Q04DX003 (ip), vehicle: other) was 91 % of control [survivor count not shown] and the T/C (dose: 132.0 mg/kg/injection, schedule: Q01DX009 (ip), vehicle: other) was 145 % of control [survivor count not shown]. The T/C (dose: 132.0 mg/kg/injection, schedule: Q04DX003 (ip), vehicle: other) was 91 % of control [survivor count not shown], the T/C (dose: 200.0 mg/kg/injection, schedule: Q01DX009 (ip), vehicle: other) was 154 % of control [survivor count not shown] and the T/C (dose: 200.0 mg/kg/injection, schedule: Q04DX003 (ip), vehicle: other) was 150 % of control [survivor count not shown]. The T/C (dose: 300.0 mg/kg/injection, schedule: Q01DX009 (ip), vehicle: other) was 190 % of control [survivor count not shown] and the T/C (dose: 300.0 mg/kg/injection, schedule: Q04DX003 (ip), vehicle: other) was 129 % of control [survivor count not shown].

In the case of `Nc1ncnc2c1ncn2CCN(CCCl)CCCl`, the T/C (dose: 0.44 mg/kg/injection, schedule: Q01DX009 (ip), vehicle: saline) is reported as 144 % of control [survivor count not shown], the T/C (dose: 0.66 mg/kg/injection, schedule: Q01DX009 (ip), vehicle: saline) is reported as 153 % of control [survivor count not shown] and the T/C (dose: 1.0 mg/kg/injection, schedule: Q01DX009 (ip), vehicle: saline) is reported as 185 % of control [survivor count not shown]. For the same compound, the T/C (dose: 1.5 mg/kg/injection, schedule: Q01DX009 (ip), vehicle: saline) was 201 % of control [survivor count not shown], the T/C (dose: 2.2 mg/kg/injection, schedule: Q04DX003 (ip), vehicle: saline) was 135 % of control [survivor count not shown] and the T/C (dose: 3.3 mg/kg/injection, schedule: Q04DX003 (ip), vehicle: saline) was 150 % of control [survivor count not shown]. For the same compound, the T/C (dose: 5.0 mg/kg/injection, schedule: Q04DX003 (ip), vehicle: saline) was 155 % of control [survivor count not shown], the T/C (dose: 6.25 mg/kg/injection, schedule: Q04DX003 (ip), vehicle: saline) was 204 % of control [survivor count not shown] and the T/C (dose: 7.5 mg/kg/injection, schedule: Q04DX003 (ip), vehicle: saline) was 185 % of control [survivor count not shown]. For the same compound, the T/C (dose: 12.5 mg/kg/injection, schedule: Q04DX003 (ip), vehicle: saline) was 104 % of control [survivor count not shown].

With `O=CCCCc1ccc(N(CCCl)CCCl)cc1` the T/C (dose: 2.25 mg/kg/injection, schedule: Q#A X018 (ip), vehicle: other) was 95 % of control [survivor count not shown], the T/C (dose: 4.5 mg/kg/injection, schedule: Q#A X018 (ip), vehicle: other) was 190 % of control [survivor count not shown] and the T/C (dose: 9.0 mg/kg/injection, schedule: Q#A X018 (ip), vehicle: other) was 190 % of control [survivor count not shown]. For the same compound, the T/C (dose: 18.0 mg/kg/injection, schedule: Q#A X018 (ip), vehicle: other) was 154 % of control [survivor count not shown].

`ClCCN(CCCl)C1Cc2ccccc2C1` was tested, and the T/C (dose: 0.79 mg/kg/injection, schedule: Q01DX009 (ip), vehicle: saline) was 93, 111, 137 % of control, the T/C (dose: 1.56 mg/kg/injection, schedule: Q01DX009 (ip), vehicle: saline) was 103 and 153 % of control and the T/C [4] was 95, 103, 150 % of control. For the same compound, the T/C [5] was 96, 103, 117, 171 % of control.
